Some of the results follow.
Experiments:
Assay in all cases: log2 fold change, soluble protein after heating vs DMSO (PISA); higher = thermal stabilisation; K562 lysate, 10 uM; active = over 0.2 and 3.5 SD of the protein, either way, in both replicates (recomputed)
lapatinib = compound: CS(=O)(=O)CCNCc1ccc(-c2ccc3ncnc(Nc4ccc(OCc5cccc(F)c5)c(Cl)c4)c3c2)o1 [lapatinib]
Summary of the method: (§1)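 Following dounce homogenisation of K562 pellets in PBS pH 7.4 with 1 mM MgCl2, crude extract at 1 mg/mL protein was incubated for 30 min with 10 μM compound. Aliquots were then heated for 3 min over 48°C-58°C and pooled, NP-40 was added to 0.5% at 4°C, and soluble protein was recovered as the supernatant at 21,000xg for 90 min. Channel-sum-equalised TMTpro 16plex LC-MS/MS quantified this protein. Each value, from duplicates, is a log-two fold change in thermal stability relative to solvent controls.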

By UniProt entry, the sequences of proteins in these tests, tags left out. Where a name states a change or a piece, a line headed by the entry shows the natural chain unless it says otherwise.
UniProt Q9H6A9: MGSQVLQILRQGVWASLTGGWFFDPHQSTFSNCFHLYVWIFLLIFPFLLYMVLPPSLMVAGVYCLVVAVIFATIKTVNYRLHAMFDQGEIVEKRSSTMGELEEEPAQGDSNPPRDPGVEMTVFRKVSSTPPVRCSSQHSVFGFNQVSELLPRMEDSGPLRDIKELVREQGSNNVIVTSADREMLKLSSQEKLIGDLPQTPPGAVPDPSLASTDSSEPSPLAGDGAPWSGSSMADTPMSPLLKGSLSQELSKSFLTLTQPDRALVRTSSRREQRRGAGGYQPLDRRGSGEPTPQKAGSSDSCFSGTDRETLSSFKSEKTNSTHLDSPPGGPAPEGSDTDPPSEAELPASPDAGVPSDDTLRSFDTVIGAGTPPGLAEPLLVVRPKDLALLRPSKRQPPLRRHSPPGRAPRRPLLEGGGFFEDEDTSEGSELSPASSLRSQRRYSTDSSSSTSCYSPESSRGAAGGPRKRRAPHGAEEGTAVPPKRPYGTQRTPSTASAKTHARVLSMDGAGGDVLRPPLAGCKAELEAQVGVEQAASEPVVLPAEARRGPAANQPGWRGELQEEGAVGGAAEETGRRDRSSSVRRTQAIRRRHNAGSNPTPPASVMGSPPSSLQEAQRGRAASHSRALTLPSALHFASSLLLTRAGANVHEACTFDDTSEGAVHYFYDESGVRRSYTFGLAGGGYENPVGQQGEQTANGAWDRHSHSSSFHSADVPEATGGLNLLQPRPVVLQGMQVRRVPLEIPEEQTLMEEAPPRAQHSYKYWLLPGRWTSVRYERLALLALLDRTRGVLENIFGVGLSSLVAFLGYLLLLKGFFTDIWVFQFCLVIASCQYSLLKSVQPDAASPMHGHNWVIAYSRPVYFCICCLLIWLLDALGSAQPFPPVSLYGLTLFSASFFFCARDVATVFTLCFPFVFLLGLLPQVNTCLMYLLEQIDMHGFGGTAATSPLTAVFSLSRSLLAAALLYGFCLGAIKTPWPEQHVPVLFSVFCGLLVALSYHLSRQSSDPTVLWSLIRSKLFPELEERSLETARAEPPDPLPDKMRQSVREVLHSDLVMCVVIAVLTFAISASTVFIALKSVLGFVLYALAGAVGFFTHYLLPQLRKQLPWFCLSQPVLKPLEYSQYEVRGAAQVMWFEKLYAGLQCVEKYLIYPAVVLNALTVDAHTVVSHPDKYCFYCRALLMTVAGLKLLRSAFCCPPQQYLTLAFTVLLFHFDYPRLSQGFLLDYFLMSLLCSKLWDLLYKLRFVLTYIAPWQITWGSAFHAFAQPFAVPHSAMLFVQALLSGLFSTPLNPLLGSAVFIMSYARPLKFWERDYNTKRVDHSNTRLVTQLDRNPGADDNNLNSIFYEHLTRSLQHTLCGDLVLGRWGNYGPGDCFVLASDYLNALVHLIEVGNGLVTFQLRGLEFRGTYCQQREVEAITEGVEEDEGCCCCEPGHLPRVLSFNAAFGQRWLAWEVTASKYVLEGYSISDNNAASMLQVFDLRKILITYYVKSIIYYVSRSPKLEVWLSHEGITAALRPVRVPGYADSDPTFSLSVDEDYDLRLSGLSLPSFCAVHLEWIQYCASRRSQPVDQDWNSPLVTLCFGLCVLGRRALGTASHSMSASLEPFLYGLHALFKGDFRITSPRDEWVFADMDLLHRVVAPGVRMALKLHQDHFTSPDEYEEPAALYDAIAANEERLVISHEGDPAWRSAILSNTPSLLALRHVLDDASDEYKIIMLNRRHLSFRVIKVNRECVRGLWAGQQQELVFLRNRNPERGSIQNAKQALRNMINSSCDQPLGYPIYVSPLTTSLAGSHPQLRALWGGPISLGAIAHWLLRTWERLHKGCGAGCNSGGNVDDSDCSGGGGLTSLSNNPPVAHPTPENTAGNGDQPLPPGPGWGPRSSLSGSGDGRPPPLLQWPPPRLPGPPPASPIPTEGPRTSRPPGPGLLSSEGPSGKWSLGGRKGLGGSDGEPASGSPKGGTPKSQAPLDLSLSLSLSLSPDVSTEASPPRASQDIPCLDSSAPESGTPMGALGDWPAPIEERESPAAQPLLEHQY
UniProt Q8WUM4: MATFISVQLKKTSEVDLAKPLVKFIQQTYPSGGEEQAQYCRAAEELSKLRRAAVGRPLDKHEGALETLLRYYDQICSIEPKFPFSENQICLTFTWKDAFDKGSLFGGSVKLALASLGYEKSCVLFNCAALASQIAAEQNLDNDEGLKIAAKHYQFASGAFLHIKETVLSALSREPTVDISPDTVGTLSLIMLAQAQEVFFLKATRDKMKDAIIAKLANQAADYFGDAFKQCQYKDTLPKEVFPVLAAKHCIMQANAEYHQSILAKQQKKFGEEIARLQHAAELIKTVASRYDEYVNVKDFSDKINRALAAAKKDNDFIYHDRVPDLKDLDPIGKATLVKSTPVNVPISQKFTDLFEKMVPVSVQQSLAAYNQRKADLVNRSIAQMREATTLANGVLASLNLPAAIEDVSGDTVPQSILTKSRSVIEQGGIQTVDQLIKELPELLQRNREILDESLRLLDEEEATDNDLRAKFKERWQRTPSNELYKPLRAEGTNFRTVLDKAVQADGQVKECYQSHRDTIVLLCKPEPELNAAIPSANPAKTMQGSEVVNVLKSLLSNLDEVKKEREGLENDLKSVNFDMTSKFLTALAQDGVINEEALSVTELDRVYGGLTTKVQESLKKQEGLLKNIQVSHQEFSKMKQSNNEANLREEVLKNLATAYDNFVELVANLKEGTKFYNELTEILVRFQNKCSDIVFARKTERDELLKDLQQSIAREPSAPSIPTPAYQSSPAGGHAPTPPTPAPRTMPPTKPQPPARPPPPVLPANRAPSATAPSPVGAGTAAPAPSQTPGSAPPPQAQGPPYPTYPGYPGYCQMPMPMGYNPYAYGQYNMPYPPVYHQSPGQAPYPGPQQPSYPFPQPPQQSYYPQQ
UniProt Q29RF7: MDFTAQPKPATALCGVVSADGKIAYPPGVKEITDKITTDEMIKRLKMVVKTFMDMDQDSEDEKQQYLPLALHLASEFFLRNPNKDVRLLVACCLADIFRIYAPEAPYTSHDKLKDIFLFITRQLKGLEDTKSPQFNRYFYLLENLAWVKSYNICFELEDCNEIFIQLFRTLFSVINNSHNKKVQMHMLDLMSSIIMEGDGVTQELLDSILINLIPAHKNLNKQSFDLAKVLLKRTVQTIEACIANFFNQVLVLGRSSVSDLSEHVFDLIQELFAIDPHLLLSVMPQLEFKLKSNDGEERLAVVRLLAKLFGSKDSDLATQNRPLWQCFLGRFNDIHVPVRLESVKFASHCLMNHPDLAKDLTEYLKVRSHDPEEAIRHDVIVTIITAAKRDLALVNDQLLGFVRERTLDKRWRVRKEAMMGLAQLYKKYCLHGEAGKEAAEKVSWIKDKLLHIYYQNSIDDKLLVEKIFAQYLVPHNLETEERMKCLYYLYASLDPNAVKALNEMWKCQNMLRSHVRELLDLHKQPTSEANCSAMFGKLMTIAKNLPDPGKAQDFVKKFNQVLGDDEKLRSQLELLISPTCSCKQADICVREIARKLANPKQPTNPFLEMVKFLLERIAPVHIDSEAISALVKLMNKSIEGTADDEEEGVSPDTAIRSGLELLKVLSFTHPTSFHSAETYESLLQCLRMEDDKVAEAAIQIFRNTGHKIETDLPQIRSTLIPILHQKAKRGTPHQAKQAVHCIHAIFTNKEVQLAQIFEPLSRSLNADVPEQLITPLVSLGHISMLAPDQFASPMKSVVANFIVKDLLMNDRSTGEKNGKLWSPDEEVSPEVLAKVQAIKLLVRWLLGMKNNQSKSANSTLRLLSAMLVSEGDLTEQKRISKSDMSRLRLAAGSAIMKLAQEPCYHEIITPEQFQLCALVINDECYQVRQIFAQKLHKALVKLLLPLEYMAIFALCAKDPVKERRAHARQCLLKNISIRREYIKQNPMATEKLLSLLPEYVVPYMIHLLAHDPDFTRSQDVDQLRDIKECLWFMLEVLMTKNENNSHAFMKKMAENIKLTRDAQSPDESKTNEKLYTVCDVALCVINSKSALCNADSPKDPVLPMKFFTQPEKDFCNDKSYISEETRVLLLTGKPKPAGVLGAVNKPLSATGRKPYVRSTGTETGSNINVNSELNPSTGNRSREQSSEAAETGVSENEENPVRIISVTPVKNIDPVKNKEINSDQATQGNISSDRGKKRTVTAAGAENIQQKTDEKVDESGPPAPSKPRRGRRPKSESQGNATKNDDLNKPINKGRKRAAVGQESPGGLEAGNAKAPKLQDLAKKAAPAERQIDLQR
UniProt Q6ZW49, whole entry, looked up: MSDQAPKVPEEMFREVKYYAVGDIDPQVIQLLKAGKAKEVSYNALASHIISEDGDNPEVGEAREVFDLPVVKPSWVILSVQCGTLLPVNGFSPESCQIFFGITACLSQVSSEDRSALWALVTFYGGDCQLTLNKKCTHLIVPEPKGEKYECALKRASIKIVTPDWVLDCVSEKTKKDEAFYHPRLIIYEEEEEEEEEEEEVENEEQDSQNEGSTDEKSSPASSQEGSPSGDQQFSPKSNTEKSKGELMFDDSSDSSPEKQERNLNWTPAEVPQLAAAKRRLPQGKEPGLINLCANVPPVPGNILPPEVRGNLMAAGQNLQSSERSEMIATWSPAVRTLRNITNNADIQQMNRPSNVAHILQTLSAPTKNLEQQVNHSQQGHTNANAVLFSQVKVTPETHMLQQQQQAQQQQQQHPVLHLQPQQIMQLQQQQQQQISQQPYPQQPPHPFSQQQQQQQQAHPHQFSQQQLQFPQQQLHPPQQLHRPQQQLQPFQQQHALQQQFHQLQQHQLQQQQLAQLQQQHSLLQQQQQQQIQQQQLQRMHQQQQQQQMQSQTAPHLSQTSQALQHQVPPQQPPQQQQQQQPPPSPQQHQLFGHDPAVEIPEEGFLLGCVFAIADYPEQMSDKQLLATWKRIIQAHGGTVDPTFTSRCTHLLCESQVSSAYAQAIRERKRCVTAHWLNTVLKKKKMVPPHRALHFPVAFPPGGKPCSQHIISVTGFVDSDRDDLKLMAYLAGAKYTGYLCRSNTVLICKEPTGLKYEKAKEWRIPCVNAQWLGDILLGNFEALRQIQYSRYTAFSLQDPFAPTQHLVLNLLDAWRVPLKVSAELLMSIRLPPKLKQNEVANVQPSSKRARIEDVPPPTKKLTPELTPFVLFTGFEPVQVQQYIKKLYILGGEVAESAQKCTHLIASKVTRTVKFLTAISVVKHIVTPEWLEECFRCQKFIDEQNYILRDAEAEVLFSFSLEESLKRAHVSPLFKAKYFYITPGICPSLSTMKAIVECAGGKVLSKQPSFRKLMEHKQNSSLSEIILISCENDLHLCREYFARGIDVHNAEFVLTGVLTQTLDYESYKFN
UniProt P50479: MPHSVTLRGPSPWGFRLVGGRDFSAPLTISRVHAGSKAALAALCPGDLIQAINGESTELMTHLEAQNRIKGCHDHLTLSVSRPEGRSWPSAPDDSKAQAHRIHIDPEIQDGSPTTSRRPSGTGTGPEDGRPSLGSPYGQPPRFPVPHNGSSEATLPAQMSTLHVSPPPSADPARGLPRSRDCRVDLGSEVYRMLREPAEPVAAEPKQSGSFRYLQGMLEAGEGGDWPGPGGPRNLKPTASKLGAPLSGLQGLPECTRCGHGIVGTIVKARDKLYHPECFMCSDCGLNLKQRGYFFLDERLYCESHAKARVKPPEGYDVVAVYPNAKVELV
UniProt H7BZJ3: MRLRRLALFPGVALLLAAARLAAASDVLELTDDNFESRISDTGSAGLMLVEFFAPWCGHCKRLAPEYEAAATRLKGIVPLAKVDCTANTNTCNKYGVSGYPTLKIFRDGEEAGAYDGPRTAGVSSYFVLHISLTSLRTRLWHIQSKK
UniProt P30086: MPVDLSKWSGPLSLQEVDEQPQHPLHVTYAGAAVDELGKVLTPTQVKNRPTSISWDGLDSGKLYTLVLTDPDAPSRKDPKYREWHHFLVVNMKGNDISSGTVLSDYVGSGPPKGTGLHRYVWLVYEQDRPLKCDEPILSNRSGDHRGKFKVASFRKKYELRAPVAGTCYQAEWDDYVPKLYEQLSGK
UniProt O15530: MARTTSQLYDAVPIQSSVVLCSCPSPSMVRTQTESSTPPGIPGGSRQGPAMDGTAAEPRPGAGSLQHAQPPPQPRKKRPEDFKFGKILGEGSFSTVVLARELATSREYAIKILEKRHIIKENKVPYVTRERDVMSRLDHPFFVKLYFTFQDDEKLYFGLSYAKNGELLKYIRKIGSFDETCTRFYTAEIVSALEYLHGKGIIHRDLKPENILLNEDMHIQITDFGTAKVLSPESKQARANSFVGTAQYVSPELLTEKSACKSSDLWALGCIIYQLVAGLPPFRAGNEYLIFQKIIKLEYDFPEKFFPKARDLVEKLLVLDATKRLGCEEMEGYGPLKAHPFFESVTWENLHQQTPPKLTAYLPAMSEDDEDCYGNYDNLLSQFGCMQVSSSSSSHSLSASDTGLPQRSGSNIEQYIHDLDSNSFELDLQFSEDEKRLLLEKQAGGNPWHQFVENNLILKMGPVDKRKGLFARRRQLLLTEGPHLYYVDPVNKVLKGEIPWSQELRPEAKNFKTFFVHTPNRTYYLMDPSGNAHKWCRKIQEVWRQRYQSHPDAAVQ

pictilisib = compound: CS(=O)(=O)N1CCN(Cc2cc3nc(-c4cccc5[nH]ncc45)nc(N4CCOCC4)c3s2)CC1 [pictilisib]
Summary of the method: as §1

crizotinib = compound: C[C@@H](Oc1cc(-c2cnn(C3CCNCC3)c2)cnc1N)c1c(Cl)ccc(F)c1Cl [crizotinib]
Summary of the method: as §1

[1] = compound: C[C@H](C1=CC=C(C=C1)C(=O)NC2=C3C=CNC3=NC=C2)N
Summary of the method: as §1

duvelisib = compound: C[C@H](Nc1ncnc2nc[nH]c12)c1cc2cccc(Cl)c2c(=O)n1-c1ccccc1 [duvelisib]
Summary of the method: as §1

gandotinib = compound: Cc1cc(Nc2cc(CN3CCOCC3)c3nc(C)c(Cc4ccc(Cl)cc4F)n3n2)n[nH]1 [gandotinib]
Summary of the method: as §1

tozasertib = compound: Cc1cc(Nc2cc(N3CCN(C)CC3)nc(Sc3ccc(NC(=O)C4CC4)cc3)n2)n[nH]1 [tozasertib]
Summary of the method: as §1

doramapimod = compound: Cc1ccc(-n2nc(C(C)(C)C)cc2NC(=O)Nc2ccc(OCCN3CCOCC3)c3ccccc23)cc1 [doramapimod]
Summary of the method: as §1

bafetinib = compound: Cc1ccc(NC(=O)c2ccc(CN3CC[C@H](N(C)C)C3)c(C(F)(F)F)c2)cc1Nc1nccc(-c2cncnc2)n1 [bafetinib]
Summary of the method: as §1

[2] = compound: Cc1cccc(CC(=O)N2CCc3c2ccc(-c2cn(C)c4ncnc(N)c24)c3F)n1
Summary of the method: as §1

Target	log2 fold change (lapatinib)	log2 fold change (pictilisib)	log2 fold change (crizotinib)	log2 fold change [1]	log2 fold change (duvelisib)	log2 fold change (gandotinib)	log2 fold change (tozasertib)	log2 fold change (doramapimod)	log2 fold change (bafetinib)	log2 fold change [2]
PEX16 isoform 2 (UniProt Q9Y5Y5)	inactive: 0.006	inactive: -0.109	inactive: -0.056	inactive: -0.212	inactive: 0.064	inactive: 0.152	inactive: 0.048	inactive: 0.02	inactive: -0.072	inactive: 0.067
PCCA (UniProt P05165)	inactive: 0.029	inactive: -0.023	inactive: -0.008	inactive: 0.009	inactive: 0.014	inactive: -0.022	inactive: 0.009	inactive: 0.004	inactive: 0.014	inactive: 0.018
PDK1 (UniProt Q15118)	inactive: 0.094	inactive: -0.141	inactive: -0.122	inactive: -0.004	inactive: -0.025	inactive: -0.124	inactive: 0.353	inactive: 0.04	inactive: -0.155	inactive: 0.071
PCNX3 (UniProt Q9H6A9)	inactive: 0.014	inactive: -0.097	inactive: 0.037	inactive: -0.195	inactive: 0	inactive: 0.034	inactive: 0.055	inactive: -0.045	inactive: -0.204	inactive: -0.059
PCBP2 isoform 3 (UniProt Q15366)	inactive: -0.013	inactive: -0.008	inactive: 0.079	inactive: -0.005	inactive: -0.015	inactive: -0.023	inactive: 0.014	inactive: 0.012	inactive: 0.002	inactive: -0.042
PBXIP1 (UniProt Q96AQ6)	inactive: -0.008	inactive: -0.025	inactive: 0.008	inactive: -0.038	inactive: -0.003	inactive: -0.011	inactive: 0.007	inactive: -0.018	inactive: -0.007	inactive: 0.025
PEX5 isoform 4 (UniProt P50542)	inactive: -0.092	inactive: -0.064	inactive: -0.029	inactive: 0.044	inactive: -0.041	inactive: -0.059	inactive: 0.044	inactive: -0.024	inactive: -0.098	inactive: 0
PDCD6IP (UniProt Q8WUM4)	inactive: -0.006	inactive: -0.032	inactive: -0.103	inactive: -0.106	inactive: 0.004	inactive: -0.012	inactive: 0.033	inactive: 0.034	inactive: -0.053	inactive: 0.012
PDCD6 (UniProt O75340)	inactive: 0.011	inactive: 0.025	inactive: -0.012	inactive: -0.015	inactive: 0.005	inactive: 0.016	inactive: 0.004	inactive: 0.016	inactive: -0.044	inactive: 0.029
PDS5A (UniProt Q29RF7)	inactive: -0.024	inactive: -0.053	inactive: -0.123	inactive: -0.09	inactive: 0.023	inactive: -0.127	inactive: 0.008	inactive: 0.006	inactive: -0.075	inactive: 0.125
PES1 (UniProt O00541)	inactive: 0.006	inactive: 0.005	inactive: -0.001	inactive: -0.027	inactive: 0.01	inactive: -0.025	inactive: 0.004	inactive: -0.021	inactive: -0.014	inactive: 0.064
PEX19 (UniProt P40855)	inactive: 0.029	inactive: 0.031	inactive: -0.049	inactive: -0.021	inactive: 0.042	inactive: 0.058	inactive: -0.024	inactive: -0.008	inactive: -0.047	inactive: 0.044
PEA15 isoform 2 (UniProt Q15121)	inactive: 0.046	inactive: -0.028	inactive: 0.001	inactive: 0.032	inactive: 0.075	inactive: -0.031	inactive: 0.047	inactive: 0.05	inactive: 0.015	inactive: -0.012
PAXIP1 (UniProt Q6ZW49)	inactive: -0.009	inactive: -0.008	inactive: 0.034	inactive: 0.048	inactive: 0.03	inactive: -0.075	inactive: 0.028	inactive: 0.038	inactive: 0.021	inactive: -0.054
PGAM1 (UniProt P18669)	inactive: 0.05	inactive: -0.008	inactive: 0.036	inactive: 0.168	inactive: 0.025	inactive: -0.033	inactive: -0.022	inactive: 0.002	inactive: 0.105	inactive: -0.149
PDLIM4 (UniProt P50479)	inactive: 0.016	inactive: 0	inactive: 0.005	inactive: -0.056	inactive: -0.057	inactive: 0.047	inactive: -0.046	inactive: -0.066	inactive: -0.013	inactive: 0.007
PDSS1 (UniProt Q5T2R2)	inactive: 0.081	inactive: 0.058	inactive: -0.03	inactive: 0.038	inactive: -0.14	inactive: -0.022	inactive: 0.001	inactive: 0.039	inactive: -0.036	inactive: -0.043
PDIA3 (UniProt H7BZJ3)	inactive: -0.007	inactive: 0.108	inactive: 0.009	inactive: -0.115	inactive: 0.091	inactive: -0.01	inactive: 0.046	inactive: 0.005	inactive: -0.05	inactive: 0.2
PCLO (UniProt Q9Y6V0)	inactive: 0.001	inactive: 0.034	inactive: -0.087	inactive: -0.298	inactive: 0.073	inactive: 0.406	inactive: -0.054	inactive: -0.044	inactive: 0	inactive: 0.365
PDCD6IP isoform 2 (UniProt Q8WUM4)	inactive: 0	inactive: -0.015	inactive: -0.015	inactive: 0.071	inactive: -0.009	inactive: -0.09	inactive: 0.024	inactive: -0.008	inactive: -0.006	inactive: -0.019
PEBP1 (UniProt P30086)	inactive: 0.01	inactive: -0.023	inactive: 0.033	inactive: -0.03	inactive: -0.005	inactive: 0.015	inactive: 0.004	inactive: -0.025	inactive: 0.029	inactive: -0.032
PCIF1 (UniProt Q9H4Z3)	inactive: -0.059	inactive: -0.016	inactive: -0.001	active: -0.239	inactive: 0.216	inactive: 0.074	inactive: -0.003	inactive: 0.017	inactive: -0.059	inactive: 0.09
PBK (UniProt Q96KB5)	inactive: -0.024	inactive: -0.011	inactive: -0.005	inactive: 0.013	inactive: -0.006	inactive: -0.066	inactive: -0.005	inactive: -0.021	inactive: -0.02	inactive: -0.01
PCBD1 (UniProt P61457)	inactive: -0.009	inactive: -0.006	inactive: -0.02	inactive: -0.157	inactive: 0.046	inactive: 0.01	inactive: 0.022	inactive: 0.078	inactive: -0.041	inactive: 0.04
PDPK1 (UniProt O15530)	inactive: -0.04	inactive: -0.051	inactive: 0.03	inactive: 0.262	inactive: -0.039	inactive: 0.092	inactive: -0.029	inactive: -0.012	inactive: -0.021	inactive: -0.211
PDHB (UniProt P11177)	inactive: 0.002	inactive: -0.033	inactive: -0.041	inactive: 0.012	inactive: 0.035	inactive: -0.002	inactive: -0.007	inactive: -0.017	inactive: -0.03	inactive: 0.028
PFKFB4 (UniProt Q16877)	inactive: -0.008	inactive: -0.061	inactive: -0.034	inactive: -0.027	inactive: 0.011	inactive: -0.044	inactive: -0.012	inactive: 0.009	inactive: -0.003	inactive: 0.039
PCF11 (UniProt O94913)	inactive: -0.017	inactive: -0.014	inactive: -0.018	inactive: 0.058	inactive: 0.005	inactive: -0.086	inactive: -0.004	inactive: -0.031	inactive: -0.021	inactive: -0.017
PDCD11 (UniProt Q14690)	inactive: -0.039	inactive: -0.097	inactive: -0.114	inactive: 0.026	inactive: 0.027	inactive: -0.038	inactive: -0.003	inactive: 0.007	inactive: -0.008	inactive: 0.042

For convenience, part of the list above.
Target	log2 fold change (lapatinib)	log2 fold change (pictilisib)	log2 fold change (crizotinib)	log2 fold change [1]	log2 fold change (duvelisib)	log2 fold change (gandotinib)	log2 fold change (tozasertib)	log2 fold change (doramapimod)	log2 fold change (bafetinib)	log2 fold change [2]
PCF11 (UniProt O94913)	inactive: -0.017	inactive: -0.014	inactive: -0.018	inactive: 0.058	inactive: 0.005	inactive: -0.086	inactive: -0.004	inactive: -0.031	inactive: -0.021	inactive: -0.017
PDCD11 (UniProt Q14690)	inactive: -0.039	inactive: -0.097	inactive: -0.114	inactive: 0.026	inactive: 0.027	inactive: -0.038	inactive: -0.003	inactive: 0.007	inactive: -0.008	inactive: 0.042

Source: the supplement of paper PMC10849652
